According to patent publication US20220204531A1, “DIBORONIC ACID COMPOUNDS AND METHODS OF MAKING AND USING THEREOF” (The Regents of The University of California, priority 2020, published 2022):

Experiment: Effect of interference sugars on DBA2+ based conductimetric sensor (solution resistance)
Experimental: To a reservoir in a device set up as depicted shown in FIG. 3, 1 mL of the initial testing solution (2 mM DBA2+P and 2.5 mM Na3PO4, pH=7.6) was added. Direct current voltage is 0 mV due to the same material for two electrodes. Alternating current voltage was set at 20 mV, and the impedance was scanned vs. frequency from 10 Hz to 10 MHz (FIGS. 4A-4C). At 0.1 MHz, the capacitive reactance is very small compared to the resistance (R) of the solution, and thus this frequency was used for the following tests.
To the testing solution, trace quantities (2-5 μL) of a concentrated (0.5 or 2 M) glucose aqueous solution were continuously added. Glucose solutions were added every 30 minutes with concentrations spanning the diabetes-relevant range, (i.e. [glucose]=0-30 mM). The resistance of solution vs. time was collected for 30 min after each addition. After adding glucose to 30 mM, the testing solution was diluted to 12 mM by adding 1.5 mL of fresh testing solution. 1.5 mL was then discharged after mixing and the resistance of the remaining 1 mL solution was monitored.
Interference effects from other sugars, i.e. fructose, galactose, maltose, and lactose, were examined. Tests were performed at two different glucose concentrations typically experienced in diabetes, 5 mM (i.e. a physiological concentration of glucose) and 20 mM (i.e. a pathophysiological concentration of glucose) in 1 mL of testing solution. In these tests, interferent concentrations were higher or equal to 2.5 times the maximum plasma concentration (MPC). To the testing solution containing glucose, 2 μL or 5 μL of one of the interference solutions (containing fructose, galactose, maltose, or lactose) were added and the solution resistance (R) was monitored. The interference by 1 mM fructose or galactose was tested due to the considerable high affinity compared to the other […].

[1] = added to testing solution with 5 mM or 20 mM glucose, FIG. 7B

| Structure (SMILES) | effect on solution resistance (R), in words [1] | effect on solution resistance (R), in words (high glucose (20 mM) conditions, 1 mM fructose) |
| --- | --- | --- |
| O=C[C@H](O)[C@@H](O)[C@@H](O)[C@H](O)CO [Galactose, galactose] | negligible effect | – |
| O=C(CO)[C@@H](O)[C@H](O)[C@H](O)CO [Fructose, fructose] | – | only a transient increase |
| OC[C@H]1O[C@H](O[C@H]2[C@H](O)[C@@H](O)[C@H](O)O[C@@H]2CO)[C@H](O)[C@@H](O)[C@@H]1O [Maltose, maltose] | no significant change | – |
| OC[C@H]1O[C@@H](O[C@H]2[C@H](O)[C@@H](O)C(O)O[C@@H]2CO)[C@H](O)[C@@H](O)[C@H]1O (stereo partly shown) [Lactose, lactose] | no significant change | – |
